Read-outs that look alike come from different tables or passages of the source. No constants are given. Whether binding was seen depends on the method and setting.
Experiments:
[1] = biological target: AcrA^S (soluble AcrA lacking signal peptide and lipidation, Cys25Met) (E. coli) (UniProt P0AE06); test: native MS
[2] = biological target: AcrA^S (soluble AcrA lacking signal peptide and lipidation, Cys25Met) (E. coli) (UniProt P0AE06); test: native MS; remark: listed apart in the source

Chains of the proteins cited; added tags and fusions are not shown. Lines headed by an entry give the natural chain unless they say otherwise; changes in a name come on top.
UniProt P0AE06, whole entry, looked up, stated change not applied: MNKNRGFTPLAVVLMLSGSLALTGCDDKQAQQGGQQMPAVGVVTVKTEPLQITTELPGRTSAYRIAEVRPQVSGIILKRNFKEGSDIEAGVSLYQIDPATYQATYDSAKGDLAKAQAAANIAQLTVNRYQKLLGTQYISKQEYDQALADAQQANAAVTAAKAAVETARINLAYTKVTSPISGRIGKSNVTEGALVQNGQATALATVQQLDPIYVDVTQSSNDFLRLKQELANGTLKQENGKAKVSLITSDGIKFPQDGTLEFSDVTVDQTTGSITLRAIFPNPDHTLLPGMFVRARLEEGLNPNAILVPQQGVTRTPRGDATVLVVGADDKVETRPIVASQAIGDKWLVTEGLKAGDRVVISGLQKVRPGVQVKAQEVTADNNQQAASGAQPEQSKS

Substance: AcrA^S (soluble AcrA lacking signal peptide and lipidation, Cys25Met) (from UniProt P0AE06 25-397)
- binding [1]: no binding
- binding [2]: no binding
